Measured values: the supplement of paper PMC10060354, “Discovery of a small molecule ligand of FRS2 that inhibits invasion and tumor growth” (Cellular Oncology, 2022)

By UniProt entry, the sequences of proteins in these tests, tags left out. Where a name states a change or a piece, a line headed by the entry shows the natural chain unless it says otherwise.
UniProt Q92888: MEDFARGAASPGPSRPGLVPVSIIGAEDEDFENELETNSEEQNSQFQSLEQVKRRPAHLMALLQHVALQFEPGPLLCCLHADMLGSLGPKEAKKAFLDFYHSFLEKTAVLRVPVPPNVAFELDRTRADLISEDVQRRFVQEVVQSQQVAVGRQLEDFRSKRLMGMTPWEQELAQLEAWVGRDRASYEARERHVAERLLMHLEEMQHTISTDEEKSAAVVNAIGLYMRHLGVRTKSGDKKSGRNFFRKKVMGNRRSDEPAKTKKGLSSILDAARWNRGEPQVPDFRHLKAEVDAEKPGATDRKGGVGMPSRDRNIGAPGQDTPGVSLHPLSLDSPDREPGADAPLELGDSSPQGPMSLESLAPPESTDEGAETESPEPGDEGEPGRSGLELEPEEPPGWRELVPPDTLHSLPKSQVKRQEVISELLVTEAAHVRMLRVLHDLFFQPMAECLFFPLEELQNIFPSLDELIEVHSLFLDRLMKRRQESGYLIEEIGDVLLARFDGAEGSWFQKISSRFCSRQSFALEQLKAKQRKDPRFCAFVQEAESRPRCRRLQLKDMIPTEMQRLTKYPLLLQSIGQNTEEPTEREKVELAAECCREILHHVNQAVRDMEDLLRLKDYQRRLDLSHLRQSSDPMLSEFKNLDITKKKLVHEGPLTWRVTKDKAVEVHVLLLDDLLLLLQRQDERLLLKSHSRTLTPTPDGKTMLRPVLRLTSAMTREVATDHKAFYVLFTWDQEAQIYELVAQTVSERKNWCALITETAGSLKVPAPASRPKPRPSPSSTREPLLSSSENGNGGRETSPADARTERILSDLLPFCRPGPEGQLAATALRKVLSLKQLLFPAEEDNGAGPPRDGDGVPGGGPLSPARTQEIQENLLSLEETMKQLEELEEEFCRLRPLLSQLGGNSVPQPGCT
UniProt Q99595: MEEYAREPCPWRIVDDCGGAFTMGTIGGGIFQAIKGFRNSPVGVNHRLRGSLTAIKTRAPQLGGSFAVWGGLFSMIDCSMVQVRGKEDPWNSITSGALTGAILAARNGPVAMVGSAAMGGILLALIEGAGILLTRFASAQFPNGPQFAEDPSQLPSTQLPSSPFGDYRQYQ
UniProt Q8WVM0: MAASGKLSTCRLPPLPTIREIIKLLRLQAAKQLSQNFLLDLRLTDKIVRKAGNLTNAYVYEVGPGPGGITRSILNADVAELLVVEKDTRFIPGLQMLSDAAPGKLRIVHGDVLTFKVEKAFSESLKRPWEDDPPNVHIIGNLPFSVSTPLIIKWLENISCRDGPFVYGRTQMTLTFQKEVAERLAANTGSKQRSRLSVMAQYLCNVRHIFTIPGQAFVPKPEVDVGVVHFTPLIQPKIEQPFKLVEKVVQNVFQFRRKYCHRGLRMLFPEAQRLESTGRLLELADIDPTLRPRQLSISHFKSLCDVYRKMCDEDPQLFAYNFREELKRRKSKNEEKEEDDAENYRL
UniProt P26640: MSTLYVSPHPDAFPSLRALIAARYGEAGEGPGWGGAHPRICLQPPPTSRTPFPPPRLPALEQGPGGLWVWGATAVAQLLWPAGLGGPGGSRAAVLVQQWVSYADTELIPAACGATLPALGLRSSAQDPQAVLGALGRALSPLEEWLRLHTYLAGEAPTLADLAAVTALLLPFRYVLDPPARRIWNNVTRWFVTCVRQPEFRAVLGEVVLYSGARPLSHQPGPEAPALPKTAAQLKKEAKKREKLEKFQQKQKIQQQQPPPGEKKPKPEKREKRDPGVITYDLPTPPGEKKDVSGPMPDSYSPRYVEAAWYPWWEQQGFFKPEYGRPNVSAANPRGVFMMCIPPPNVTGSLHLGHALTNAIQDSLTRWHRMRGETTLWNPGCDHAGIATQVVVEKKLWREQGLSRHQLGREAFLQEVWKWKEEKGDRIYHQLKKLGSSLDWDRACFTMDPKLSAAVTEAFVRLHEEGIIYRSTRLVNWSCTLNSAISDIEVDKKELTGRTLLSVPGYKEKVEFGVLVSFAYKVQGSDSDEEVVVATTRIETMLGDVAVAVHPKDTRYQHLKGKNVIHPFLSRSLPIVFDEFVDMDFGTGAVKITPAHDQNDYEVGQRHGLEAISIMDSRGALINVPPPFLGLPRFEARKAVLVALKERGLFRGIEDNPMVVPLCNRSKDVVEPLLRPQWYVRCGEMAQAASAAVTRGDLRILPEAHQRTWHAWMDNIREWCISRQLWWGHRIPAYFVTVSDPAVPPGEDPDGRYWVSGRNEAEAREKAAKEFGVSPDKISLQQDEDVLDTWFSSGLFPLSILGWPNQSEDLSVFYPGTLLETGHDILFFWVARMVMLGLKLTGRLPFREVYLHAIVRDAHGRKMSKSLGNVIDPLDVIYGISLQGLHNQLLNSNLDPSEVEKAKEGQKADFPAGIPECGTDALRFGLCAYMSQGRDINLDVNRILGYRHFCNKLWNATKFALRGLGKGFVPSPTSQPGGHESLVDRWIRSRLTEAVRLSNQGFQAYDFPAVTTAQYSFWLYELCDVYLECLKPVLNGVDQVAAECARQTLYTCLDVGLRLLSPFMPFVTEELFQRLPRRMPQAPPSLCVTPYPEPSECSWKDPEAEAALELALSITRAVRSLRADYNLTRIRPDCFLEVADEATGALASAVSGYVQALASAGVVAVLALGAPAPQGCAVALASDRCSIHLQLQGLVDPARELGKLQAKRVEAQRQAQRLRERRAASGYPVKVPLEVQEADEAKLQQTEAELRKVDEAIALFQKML
UniProt Q8NDF8: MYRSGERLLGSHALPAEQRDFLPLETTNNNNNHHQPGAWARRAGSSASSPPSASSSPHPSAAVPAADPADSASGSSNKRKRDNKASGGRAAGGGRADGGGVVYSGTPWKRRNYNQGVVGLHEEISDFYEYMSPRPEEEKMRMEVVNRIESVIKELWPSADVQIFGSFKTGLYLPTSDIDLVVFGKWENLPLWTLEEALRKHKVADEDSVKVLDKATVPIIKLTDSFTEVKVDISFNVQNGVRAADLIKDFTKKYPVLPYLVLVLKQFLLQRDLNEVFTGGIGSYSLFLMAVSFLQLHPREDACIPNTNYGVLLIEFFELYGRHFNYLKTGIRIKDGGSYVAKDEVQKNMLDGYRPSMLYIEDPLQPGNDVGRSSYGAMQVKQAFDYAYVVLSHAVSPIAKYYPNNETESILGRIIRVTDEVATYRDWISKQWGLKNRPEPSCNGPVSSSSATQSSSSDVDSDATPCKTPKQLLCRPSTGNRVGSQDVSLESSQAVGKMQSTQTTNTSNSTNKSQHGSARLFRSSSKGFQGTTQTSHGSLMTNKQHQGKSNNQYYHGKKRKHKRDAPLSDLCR
UniProt P08559, whole entry: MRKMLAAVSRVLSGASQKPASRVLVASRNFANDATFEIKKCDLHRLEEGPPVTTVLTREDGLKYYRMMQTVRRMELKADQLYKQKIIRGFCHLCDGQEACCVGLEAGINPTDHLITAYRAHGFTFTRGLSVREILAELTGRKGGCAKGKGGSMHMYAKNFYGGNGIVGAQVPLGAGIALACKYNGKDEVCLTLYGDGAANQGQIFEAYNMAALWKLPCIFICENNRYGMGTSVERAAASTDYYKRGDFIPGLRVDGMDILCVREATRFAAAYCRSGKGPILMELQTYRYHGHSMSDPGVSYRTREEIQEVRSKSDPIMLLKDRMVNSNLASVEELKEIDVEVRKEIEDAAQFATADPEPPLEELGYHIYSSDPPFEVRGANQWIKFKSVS
UniProt P23246: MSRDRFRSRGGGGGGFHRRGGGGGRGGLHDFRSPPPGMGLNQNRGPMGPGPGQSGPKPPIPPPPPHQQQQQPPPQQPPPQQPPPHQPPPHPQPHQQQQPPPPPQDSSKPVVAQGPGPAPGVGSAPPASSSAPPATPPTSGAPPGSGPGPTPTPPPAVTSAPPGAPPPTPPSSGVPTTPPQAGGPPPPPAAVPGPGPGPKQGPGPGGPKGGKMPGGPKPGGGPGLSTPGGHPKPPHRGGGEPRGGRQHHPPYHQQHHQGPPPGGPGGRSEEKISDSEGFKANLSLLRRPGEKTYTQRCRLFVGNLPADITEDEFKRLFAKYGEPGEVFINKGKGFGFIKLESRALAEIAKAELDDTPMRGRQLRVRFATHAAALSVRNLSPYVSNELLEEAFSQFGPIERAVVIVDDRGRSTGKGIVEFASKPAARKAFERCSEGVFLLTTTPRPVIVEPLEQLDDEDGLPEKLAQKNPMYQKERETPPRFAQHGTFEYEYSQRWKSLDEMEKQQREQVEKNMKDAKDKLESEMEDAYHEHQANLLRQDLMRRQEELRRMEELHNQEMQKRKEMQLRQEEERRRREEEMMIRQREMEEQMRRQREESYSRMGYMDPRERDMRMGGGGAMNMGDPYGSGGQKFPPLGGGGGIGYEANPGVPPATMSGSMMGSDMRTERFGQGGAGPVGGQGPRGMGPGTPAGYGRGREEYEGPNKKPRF
UniProt P23786: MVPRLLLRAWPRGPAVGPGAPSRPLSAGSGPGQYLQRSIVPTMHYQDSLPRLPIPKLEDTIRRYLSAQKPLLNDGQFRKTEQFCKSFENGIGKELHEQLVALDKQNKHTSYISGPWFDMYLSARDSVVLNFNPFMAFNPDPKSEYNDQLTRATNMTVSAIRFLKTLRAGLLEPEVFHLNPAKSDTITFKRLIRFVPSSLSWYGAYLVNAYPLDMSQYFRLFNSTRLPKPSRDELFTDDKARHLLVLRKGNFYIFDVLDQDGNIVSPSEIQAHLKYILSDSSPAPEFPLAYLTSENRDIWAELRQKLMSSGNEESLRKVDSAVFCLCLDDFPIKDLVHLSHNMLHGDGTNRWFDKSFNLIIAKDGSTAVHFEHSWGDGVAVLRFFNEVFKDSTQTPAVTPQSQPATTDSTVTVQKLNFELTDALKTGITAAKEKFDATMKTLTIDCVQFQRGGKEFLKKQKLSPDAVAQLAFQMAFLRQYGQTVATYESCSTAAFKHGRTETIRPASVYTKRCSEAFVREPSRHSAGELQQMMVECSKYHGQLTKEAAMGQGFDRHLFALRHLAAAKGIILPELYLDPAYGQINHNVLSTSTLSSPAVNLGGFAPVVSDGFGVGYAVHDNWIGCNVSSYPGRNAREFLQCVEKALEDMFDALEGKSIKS
UniProt O43314: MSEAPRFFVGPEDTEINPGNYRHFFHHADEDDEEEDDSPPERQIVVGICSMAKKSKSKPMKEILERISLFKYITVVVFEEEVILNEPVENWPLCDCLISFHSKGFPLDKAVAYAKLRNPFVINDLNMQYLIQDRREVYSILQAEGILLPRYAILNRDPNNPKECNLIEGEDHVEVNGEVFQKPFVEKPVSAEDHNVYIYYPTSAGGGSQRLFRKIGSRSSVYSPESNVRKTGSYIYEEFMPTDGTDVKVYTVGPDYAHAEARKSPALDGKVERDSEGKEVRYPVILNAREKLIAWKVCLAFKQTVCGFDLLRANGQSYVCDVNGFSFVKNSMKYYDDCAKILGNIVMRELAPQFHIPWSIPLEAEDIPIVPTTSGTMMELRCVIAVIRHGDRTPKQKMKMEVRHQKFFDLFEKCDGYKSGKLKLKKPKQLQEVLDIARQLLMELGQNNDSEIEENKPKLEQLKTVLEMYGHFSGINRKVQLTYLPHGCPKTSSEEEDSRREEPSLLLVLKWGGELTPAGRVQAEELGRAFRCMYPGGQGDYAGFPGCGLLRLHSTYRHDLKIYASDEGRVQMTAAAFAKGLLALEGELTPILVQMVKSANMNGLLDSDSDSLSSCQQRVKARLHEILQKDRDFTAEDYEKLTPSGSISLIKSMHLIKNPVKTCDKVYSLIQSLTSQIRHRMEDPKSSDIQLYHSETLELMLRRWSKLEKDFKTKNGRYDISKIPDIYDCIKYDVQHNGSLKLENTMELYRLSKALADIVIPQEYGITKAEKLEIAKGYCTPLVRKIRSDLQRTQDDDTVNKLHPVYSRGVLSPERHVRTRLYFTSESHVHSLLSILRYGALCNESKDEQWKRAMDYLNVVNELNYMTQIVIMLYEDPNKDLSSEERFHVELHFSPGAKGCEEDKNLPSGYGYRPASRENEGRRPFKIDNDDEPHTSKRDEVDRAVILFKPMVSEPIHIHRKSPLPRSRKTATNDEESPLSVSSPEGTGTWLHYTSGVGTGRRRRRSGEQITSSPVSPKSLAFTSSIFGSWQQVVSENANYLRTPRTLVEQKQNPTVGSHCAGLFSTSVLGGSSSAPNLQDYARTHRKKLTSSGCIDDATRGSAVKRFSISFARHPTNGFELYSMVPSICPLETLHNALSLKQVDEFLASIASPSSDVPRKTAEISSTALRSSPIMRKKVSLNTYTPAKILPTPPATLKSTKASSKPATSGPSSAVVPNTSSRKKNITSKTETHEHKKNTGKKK
UniProt Q8WU68: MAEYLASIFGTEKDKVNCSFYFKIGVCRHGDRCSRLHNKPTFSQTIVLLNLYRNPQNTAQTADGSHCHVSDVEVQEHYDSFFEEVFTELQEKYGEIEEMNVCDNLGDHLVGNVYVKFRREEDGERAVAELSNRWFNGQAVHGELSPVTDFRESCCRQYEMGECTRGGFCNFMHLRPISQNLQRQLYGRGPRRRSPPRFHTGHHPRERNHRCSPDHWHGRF

Compound: [O-][N+](C(C1=C(C(O)=C2)NC(C(C=C3)=CC=C3Cl)C4C1C=CC4)=C2Cl)=O
Assay: melting temperature shift (compound 7 minus DMSO); higher = compound stabilises the protein
Settings: 10 µM
Experimental: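 Thermal proteome profiling (TMT mass spectrometry) in intact DAOY medulloblastoma cells or DAOY lysates treated with 10 µM compound 7 or DMSO, heated at 10 temperatures from 40.5 to 73.8 °C for 3 min. Melting curves were fitted with the Bioconductor TPP package, and the melting point difference between compound and vehicle is reported per protein (single curve per condition).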

[1] = system: DAOY cell lysate, treatment time: 20 min, 4 °C
[2] = system: intact DAOY cells, treatment time: 90 min, 37 °C

Target: HADH (UniProt Q16836)
- melting temperature shift [1]: 0.883 °C
- melting temperature shift [2]: 0.302 °C

Target: KIF4A (UniProt O95239)
- melting temperature shift [1]: -1.12 °C
- melting temperature shift [2]: 0.103 °C

Target: NAE1 (UniProt Q13564)
- melting temperature shift [1]: -0.355 °C
- melting temperature shift [2]: -0.406 °C

Target: RAD51AP1 (UniProt Q96B01)
- melting temperature shift [1]: 0.841 °C

Target: SEPHS1 (UniProt P49903)
- melting temperature shift [1]: 2.01 °C

Target: ARAF (UniProt P10398)
- melting temperature shift [1]: -2.2 °C

Target: UXT (UniProt Q9UBK9)
- melting temperature shift [1]: -0.512 °C
- melting temperature shift [2]: 1.04 °C

Target: NAA25 (UniProt Q14CX7)
- melting temperature shift [1]: -0.262 °C
- melting temperature shift [2]: -0.919 °C

Target: ARHGEF1 (UniProt Q92888)
- melting temperature shift [1]: 0.00449 °C
- melting temperature shift [2]: 0.164 °C

Target: UniProt Q96A72
- melting temperature shift [2]: 1.32 °C

Target: TIMM17A (UniProt Q99595)
- melting temperature shift [1]: 1.36 °C
- melting temperature shift [2]: -2.85 °C

Target: TFB1M (UniProt Q8WVM0)
- melting temperature shift [1]: -0.619 °C

Target: VARS (UniProt P26640)
- melting temperature shift [1]: -0.494 °C
- melting temperature shift [2]: -0.19 °C

Target: PAPD5 (UniProt Q8NDF8)
- melting temperature shift [1]: 0.375 °C

Target: CLPX (UniProt O76031)
- melting temperature shift [1]: 0.192 °C
- melting temperature shift [2]: -2.13 °C

Target: GNAI1 (UniProt P63096)
- melting temperature shift [1]: 0.0696 °C
- melting temperature shift [2]: 1.15 °C

Target: RABGEF1 (UniProt Q9UJ41)
- melting temperature shift [1]: -0.846 °C
- melting temperature shift [2]: 1.08 °C

Target: EIF5B (UniProt O60841)
- melting temperature shift [1]: 0.0759 °C
- melting temperature shift [2]: -0.283 °C

Target: PDHA1 (UniProt P08559)
- melting temperature shift [1]: 0.18 °C
- melting temperature shift [2]: -0.833 °C

Target: ARL8A (UniProt Q96BM9)
- melting temperature shift [1]: -2.6 °C
- melting temperature shift [2]: -0.7 °C

Target: KAT7 (UniProt O95251)
- melting temperature shift [1]: -1.32 °C

Target: TOR1AIP1 (UniProt Q5JTV8)
- melting temperature shift [1]: 0.973 °C
- melting temperature shift [2]: -0.29 °C

Target: UniProt Q7Z4R8
- melting temperature shift [1]: 1.25 °C

Target: REXO4 (UniProt Q9GZR2)
- melting temperature shift [1]: 0.516 °C

Target: RAB5C (UniProt P51148)
- melting temperature shift [1]: 0.783 °C
- melting temperature shift [2]: -0.275 °C

Target: DAPK3 (UniProt O43293)
- melting temperature shift [2]: 0.494 °C

Target: NUMB (UniProt P49757)
- melting temperature shift [1]: -0.00145 °C
- melting temperature shift [2]: 0.104 °C

Target: PTEN (UniProt P60484)
- melting temperature shift [2]: 0.859 °C

Target: SFPQ (UniProt P23246)
- melting temperature shift [1]: 1.03 °C
- melting temperature shift [2]: -0.0248 °C

Target: CPT2 (UniProt P23786)
- melting temperature shift [1]: -0.0322 °C
- melting temperature shift [2]: -0.438 °C

Target: POLR2L (UniProt P62875)
- melting temperature shift [1]: -0.676 °C
- melting temperature shift [2]: 3.21 °C

Target: POLDIP3 (UniProt Q9BY77)
- melting temperature shift [1]: 1.1 °C
- melting temperature shift [2]: 2.27 °C

Target: BAG2 (UniProt O95816)
- melting temperature shift [1]: -0.442 °C
- melting temperature shift [2]: 0.675 °C

Target: ATG5 (UniProt Q9H1Y0)
- melting temperature shift [1]: 0.193 °C
- melting temperature shift [2]: 0.454 °C

Target: UniProt Q9H019
- melting temperature shift [1]: -1.08 °C
- melting temperature shift [2]: -3.5 °C

Target: PPIP5K2 (UniProt O43314)
- melting temperature shift [1]: 0.735 °C
- melting temperature shift [2]: -0.893 °C

Target: UniProt Q12872
- melting temperature shift [1]: -0.878 °C
- melting temperature shift [2]: -1.62 °C

Target: NCOR2 (UniProt Q9Y618)
- melting temperature shift [1]: -0.441 °C
- melting temperature shift [2]: -0.865 °C

Target: UniProt Q8WU68
- melting temperature shift [2]: -0.214 °C

Target: IQGAP1 (UniProt P46940)
- melting temperature shift [1]: -0.411 °C
- melting temperature shift [2]: -1.1 °C

Target: MRPL21 (UniProt Q7Z2W9)
- melting temperature shift [1]: 2.96 °C
- melting temperature shift [2]: -0.66 °C

Target: MVP (UniProt Q14764)
- melting temperature shift [1]: -0.147 °C
- melting temperature shift [2]: 0.218 °C

Target: TGFBRAP1 (UniProt Q8WUH2)
- melting temperature shift [1]: 2.08 °C

Target: RNF219 (UniProt Q5W0B1)
- melting temperature shift [1]: -0.12 °C
- melting temperature shift [2]: -4.94 °C

Target: SBDS (UniProt Q9Y3A5)
- melting temperature shift [1]: -0.466 °C
- melting temperature shift [2]: -0.102 °C

Target: UniProt Q9NP84
- melting temperature shift [1]: 0.0235 °C

Repeats are few or missing, and single values can be far off.
